According to the supplement of paper PMC11006884:
This is a selection; strong and weak results do not stand in their true shares. This is a noisy data set.

Protein sequences, listed by entry. Tags and fused reporters are not part of them. Lines headed by an entry give the natural chain unless they say otherwise; changes in a name come on top.
UniProt P10644, whole entry, looked up: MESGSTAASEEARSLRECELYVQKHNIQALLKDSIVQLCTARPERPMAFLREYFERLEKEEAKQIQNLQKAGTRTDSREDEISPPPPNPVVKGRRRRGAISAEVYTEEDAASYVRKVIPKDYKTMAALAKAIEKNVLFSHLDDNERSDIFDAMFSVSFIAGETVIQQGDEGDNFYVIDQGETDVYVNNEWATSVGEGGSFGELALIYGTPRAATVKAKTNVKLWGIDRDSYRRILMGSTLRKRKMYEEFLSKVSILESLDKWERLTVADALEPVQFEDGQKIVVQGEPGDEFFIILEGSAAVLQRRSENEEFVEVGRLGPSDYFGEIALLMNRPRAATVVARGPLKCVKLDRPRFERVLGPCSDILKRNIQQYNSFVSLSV
UniProt P14923: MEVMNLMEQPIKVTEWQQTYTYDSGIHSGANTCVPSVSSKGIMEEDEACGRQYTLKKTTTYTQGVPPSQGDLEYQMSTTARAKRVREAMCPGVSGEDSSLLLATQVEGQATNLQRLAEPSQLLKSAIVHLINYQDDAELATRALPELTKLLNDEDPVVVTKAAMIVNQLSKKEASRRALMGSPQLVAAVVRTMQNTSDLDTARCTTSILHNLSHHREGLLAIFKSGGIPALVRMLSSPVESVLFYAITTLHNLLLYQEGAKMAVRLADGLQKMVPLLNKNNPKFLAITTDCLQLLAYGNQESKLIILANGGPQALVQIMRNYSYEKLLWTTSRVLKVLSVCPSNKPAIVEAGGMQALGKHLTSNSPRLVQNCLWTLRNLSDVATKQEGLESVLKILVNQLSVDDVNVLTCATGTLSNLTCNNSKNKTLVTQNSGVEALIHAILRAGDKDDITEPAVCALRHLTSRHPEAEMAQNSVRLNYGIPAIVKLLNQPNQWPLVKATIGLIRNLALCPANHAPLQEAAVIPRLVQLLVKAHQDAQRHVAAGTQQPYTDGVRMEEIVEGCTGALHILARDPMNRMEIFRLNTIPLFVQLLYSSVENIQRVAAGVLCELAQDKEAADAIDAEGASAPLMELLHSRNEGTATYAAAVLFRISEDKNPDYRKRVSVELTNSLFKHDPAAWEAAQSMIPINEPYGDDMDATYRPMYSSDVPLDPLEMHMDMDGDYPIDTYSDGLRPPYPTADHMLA
UniProt P09543: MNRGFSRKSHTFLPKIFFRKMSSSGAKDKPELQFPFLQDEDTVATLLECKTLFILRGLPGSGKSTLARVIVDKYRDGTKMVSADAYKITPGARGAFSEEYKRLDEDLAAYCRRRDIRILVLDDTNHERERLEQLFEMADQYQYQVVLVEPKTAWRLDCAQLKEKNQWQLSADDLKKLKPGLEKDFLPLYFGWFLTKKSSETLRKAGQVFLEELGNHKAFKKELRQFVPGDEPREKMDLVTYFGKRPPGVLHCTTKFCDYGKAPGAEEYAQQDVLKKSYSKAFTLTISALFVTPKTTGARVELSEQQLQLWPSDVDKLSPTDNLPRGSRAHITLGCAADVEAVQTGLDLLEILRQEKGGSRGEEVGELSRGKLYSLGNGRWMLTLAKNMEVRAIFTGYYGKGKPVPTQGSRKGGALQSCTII
UniProt P09960: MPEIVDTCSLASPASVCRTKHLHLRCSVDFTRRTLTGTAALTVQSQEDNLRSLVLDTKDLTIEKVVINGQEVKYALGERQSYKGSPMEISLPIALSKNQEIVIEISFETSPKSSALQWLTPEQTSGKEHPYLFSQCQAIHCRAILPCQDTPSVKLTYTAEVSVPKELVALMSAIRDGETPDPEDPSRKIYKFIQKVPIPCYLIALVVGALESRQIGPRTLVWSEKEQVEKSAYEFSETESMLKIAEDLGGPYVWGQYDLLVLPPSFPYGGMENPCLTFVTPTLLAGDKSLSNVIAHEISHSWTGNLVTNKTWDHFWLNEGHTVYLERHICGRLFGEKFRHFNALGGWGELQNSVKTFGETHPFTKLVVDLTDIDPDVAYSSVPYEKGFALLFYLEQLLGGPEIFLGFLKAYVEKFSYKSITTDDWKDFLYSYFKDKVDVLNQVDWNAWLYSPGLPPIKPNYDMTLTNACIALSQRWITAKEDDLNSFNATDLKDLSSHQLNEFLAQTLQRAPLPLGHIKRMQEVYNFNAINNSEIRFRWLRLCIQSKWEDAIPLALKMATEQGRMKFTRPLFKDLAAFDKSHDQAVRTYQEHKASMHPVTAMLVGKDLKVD
UniProt P13010: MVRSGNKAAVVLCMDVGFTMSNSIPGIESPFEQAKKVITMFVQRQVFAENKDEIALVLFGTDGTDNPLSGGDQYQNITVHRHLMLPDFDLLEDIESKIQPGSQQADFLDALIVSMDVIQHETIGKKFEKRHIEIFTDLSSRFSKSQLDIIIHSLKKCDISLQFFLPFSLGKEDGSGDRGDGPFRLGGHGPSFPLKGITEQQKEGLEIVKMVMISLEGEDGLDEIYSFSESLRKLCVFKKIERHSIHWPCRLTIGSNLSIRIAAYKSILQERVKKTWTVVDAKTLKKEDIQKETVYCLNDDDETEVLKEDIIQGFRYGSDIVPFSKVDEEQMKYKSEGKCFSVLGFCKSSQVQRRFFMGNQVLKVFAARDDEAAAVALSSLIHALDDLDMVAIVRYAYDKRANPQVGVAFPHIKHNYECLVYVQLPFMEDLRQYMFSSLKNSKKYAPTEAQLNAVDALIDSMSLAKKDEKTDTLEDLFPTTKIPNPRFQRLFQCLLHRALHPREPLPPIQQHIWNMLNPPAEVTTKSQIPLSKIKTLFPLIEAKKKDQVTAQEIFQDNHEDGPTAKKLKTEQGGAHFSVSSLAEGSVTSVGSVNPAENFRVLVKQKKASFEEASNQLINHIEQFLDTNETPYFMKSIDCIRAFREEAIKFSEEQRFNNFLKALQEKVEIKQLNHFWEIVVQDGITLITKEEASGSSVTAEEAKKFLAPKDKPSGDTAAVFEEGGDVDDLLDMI
UniProt P08559, whole entry: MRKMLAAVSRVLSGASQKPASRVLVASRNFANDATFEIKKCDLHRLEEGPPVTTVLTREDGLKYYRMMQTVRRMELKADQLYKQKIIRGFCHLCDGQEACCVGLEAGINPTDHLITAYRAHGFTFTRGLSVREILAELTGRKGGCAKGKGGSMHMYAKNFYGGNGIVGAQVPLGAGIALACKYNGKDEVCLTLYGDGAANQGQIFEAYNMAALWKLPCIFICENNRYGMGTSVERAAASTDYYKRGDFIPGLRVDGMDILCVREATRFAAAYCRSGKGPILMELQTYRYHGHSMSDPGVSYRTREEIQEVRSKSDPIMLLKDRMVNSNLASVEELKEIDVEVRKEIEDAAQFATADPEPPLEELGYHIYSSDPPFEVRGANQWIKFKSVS
UniProt P12955: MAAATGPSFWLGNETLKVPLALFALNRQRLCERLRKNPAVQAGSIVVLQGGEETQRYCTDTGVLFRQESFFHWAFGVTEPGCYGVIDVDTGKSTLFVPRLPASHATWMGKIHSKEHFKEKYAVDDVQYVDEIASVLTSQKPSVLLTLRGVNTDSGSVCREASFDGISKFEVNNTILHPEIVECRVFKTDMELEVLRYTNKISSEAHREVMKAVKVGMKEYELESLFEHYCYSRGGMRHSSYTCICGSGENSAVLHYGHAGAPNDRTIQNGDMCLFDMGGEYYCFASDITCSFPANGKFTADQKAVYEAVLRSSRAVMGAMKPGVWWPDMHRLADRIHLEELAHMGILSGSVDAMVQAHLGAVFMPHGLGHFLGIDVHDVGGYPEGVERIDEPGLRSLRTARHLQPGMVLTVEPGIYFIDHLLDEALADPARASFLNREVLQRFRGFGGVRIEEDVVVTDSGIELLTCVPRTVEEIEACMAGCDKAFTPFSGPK
UniProt P09874, whole entry, looked up: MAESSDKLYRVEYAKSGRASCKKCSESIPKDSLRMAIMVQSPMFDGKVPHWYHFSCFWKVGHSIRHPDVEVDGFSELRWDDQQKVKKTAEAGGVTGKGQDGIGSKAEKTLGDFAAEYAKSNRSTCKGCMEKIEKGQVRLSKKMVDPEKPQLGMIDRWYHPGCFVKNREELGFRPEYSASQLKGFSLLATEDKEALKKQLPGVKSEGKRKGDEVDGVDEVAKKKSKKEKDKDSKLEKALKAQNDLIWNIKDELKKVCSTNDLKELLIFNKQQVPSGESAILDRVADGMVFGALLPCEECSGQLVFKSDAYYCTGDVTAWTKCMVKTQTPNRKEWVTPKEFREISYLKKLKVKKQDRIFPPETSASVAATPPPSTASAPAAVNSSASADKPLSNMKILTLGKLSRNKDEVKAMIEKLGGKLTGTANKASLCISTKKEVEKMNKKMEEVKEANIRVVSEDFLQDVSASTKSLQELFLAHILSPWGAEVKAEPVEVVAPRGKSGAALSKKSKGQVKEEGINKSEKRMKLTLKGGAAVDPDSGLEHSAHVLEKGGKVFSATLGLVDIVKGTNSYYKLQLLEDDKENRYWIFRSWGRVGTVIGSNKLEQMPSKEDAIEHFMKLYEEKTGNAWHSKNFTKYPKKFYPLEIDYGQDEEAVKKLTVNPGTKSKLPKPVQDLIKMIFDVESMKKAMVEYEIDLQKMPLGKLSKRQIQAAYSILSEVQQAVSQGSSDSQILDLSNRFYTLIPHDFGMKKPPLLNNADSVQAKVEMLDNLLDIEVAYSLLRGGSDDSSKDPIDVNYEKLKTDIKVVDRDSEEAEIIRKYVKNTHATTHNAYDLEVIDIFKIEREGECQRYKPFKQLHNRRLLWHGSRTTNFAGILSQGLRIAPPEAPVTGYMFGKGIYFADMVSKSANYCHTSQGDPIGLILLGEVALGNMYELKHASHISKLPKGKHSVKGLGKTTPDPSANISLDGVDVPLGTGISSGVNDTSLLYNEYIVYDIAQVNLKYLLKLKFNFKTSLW
UniProt P12004, whole entry, looked up: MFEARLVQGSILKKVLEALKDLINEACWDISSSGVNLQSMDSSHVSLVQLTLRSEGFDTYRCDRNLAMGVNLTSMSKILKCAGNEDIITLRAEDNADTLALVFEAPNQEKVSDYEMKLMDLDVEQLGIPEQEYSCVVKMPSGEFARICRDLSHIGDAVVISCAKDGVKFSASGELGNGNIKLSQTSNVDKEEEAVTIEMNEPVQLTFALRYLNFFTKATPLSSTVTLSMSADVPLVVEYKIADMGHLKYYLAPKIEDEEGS
UniProt P14618, whole entry, looked up: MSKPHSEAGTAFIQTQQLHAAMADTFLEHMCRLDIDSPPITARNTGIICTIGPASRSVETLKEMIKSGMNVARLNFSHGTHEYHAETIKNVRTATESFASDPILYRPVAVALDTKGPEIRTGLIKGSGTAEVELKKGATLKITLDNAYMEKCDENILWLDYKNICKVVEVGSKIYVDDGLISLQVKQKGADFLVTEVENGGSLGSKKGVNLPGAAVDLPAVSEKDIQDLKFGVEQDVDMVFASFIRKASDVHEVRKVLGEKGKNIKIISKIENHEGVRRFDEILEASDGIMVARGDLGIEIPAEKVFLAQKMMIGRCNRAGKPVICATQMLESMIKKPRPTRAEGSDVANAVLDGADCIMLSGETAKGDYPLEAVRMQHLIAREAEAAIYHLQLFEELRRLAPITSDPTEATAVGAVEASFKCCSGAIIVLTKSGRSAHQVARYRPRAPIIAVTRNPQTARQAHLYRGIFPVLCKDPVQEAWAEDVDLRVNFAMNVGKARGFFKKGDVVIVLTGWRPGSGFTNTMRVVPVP
UniProt P08134, whole entry: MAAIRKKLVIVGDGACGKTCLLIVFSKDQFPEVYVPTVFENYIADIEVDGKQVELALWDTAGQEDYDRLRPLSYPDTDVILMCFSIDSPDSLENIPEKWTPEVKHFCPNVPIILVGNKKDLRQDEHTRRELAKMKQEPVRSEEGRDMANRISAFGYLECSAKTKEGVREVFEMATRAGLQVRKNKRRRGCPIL
UniProt P17655: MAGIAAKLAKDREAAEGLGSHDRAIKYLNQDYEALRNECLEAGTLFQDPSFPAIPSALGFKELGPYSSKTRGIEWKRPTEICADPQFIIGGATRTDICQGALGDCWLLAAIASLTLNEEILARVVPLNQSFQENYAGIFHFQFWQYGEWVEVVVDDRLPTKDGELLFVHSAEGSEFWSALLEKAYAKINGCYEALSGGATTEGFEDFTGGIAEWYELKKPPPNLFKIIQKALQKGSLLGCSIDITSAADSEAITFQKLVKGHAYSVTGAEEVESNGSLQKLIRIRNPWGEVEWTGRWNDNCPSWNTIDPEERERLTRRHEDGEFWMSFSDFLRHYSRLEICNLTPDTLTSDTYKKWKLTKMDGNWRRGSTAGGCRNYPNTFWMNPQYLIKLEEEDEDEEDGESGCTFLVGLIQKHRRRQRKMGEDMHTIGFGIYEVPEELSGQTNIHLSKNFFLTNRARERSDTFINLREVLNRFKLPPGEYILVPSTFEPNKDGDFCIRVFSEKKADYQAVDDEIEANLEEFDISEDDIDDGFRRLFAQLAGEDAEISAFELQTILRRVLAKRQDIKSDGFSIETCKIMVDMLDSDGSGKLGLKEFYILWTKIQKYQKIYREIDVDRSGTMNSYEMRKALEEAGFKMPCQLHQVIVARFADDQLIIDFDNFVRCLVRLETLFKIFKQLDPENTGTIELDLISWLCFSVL

compound: COC(=O)/C=C/c1ccccc1 [methyl cinnamate]; assay: log2 ratio of iodoacetamide-alkyne labeling of the cysteine site, DMSO over compound (competition); higher = stronger covalent engagement of the cysteine by the compound, active = 1 or more; conditions: 500 µM; treatment time 1 h; system: HEK293T cell lysate
Procedure, shortened: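 The log2 competition ratio per cysteine is defined as mean reporter intensity in control channels over mean reporter intensity in compound channels. Lysate from HEK293T cells (2 mg/mL) received electrophile (500 µM) or vehicle for 1 h at ambient temperature, followed by iodoacetamide alkyne for 1 h. Samples were clicked to sCIP-TMT reagents, pooled, trypsin-digested overnight at 37 °C, streptavidin-enriched, acid-eluted and run on Orbitrap Eclipse LC-MS/MS with FAIMS, with quantification in FragPipe. Three replicates with duplicate channels were used, and any cysteine quantified in only one replicate was excluded.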

log2 ratio of iodoacetamide-alkyne labeling, inactive:
PRKAR1A C362 (UniProt P10644) 0.151
JUP C511 (UniProt P14923) 0.0844
CNP C49 (UniProt P09543) -0.154
LTA4H C200 (UniProt P09960) 0.382
XRCC5 C339 (UniProt P13010) -0.0276
PDHA1 C261 (UniProt P08559) -0.0503
PEPD C467 (UniProt P12955) 0.0403
HNRNPL C581 (UniProt P14866) 0.0326
PARP1 C256 (UniProt P09874) 0.252
PCNA C135 (UniProt P12004) 0.0515
UniProt P14618_C474 0.159
UniProt P08134_C107 -0.128
UniProt P14618_C424 -0.379
U2AF1L5 C154 (UniProt P0DN76) -0.14
UniProt P08240_C424 0.196
CAPN2 C405 (UniProt P17655) -0.201

No new results follow: entries from further up.
log2 ratio of iodoacetamide-alkyne labeling, inactive:
PEPD C467 (UniProt P12955) 0.0403
HNRNPL C581 (UniProt P14866) 0.0326
PARP1 C256 (UniProt P09874) 0.252
